This data set deals with KdpE DBD (KdpEDBD) (Escherichia coli str. K-12 substr. MG1655) (UniProt P21866). Put plainly: EMSA. The conditions noted are these: EMSA: 10 mM Tris pH 8.0, 50 mM NaCl, 5% glycerol, 0.1% Triton X-100, 10 mM DTT, 1 mM EDTA, 1 uM DNA, 6% gel in TBE, temperature not stated; recombinant protein; residues 124-225; protein details: N-terminal His-tag removed with TEV.

Amino acid sequences for entries named in this document (tags omitted). Residues count along the entry.
UniProt P21866, 124-225: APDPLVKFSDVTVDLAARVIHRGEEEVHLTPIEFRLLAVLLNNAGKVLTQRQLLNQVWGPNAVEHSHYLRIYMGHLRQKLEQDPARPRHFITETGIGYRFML

This note sets out measurements from publication PMC3264566.

For at least one entry, the source does not settle the construct or the ends of the probe. At least one verdict rests on a figure or table, not on a statement of the authors.

“CATTTTTATACTTTTTTTACACCCCGCCCG (double strand) [kdpFABCBS 30 bp]”: the binding result is “binds”.
